Reference: patent US20250120943A1, “RIFAMYCIN OPHTHALMIC COMPOSITION AND USE THEREOF” (AMD THERAPEUTICS LLC, priority 2022, published 2025)
At least one structure is not confirmed: it was looked up by name or label, or the drawing left a doubt.

System: Neovascularization in retina of oxygen-induced retinopathy rat models
Assay: Oxygen-induced retinopathy rat model, capillaries counted in histology sections
Format: in vivo, Sprague-Dawley rat
Settings: topical eye drop formulation or SC injection, FIGS. 1C-1F

## CO[C@H]1/C=C/O[C@@]2(C)Oc3c(C)c(O)c4c(O)c(c(/C=N/N5CCN(C)CC5)c(O)c4c3C2=O)NC(=O)/C(C)=C\C=C\[C@H](C)[C@H](O)[C@@H](C)[C@@H](O)[C@@H](C)[C@H](OC(C)=O)[C@@H]1C [Rifampicin, rifampicin]
  New capillaries on the retinal surface in histology sections versus vehicle control: the number of new capillaries is fewer than that in the control group
